Some entries share one result that the patent states for a list of compounds. Some ranges recur; such a range may be that of the whole group of compounds.
Test: in vitro monatin production with aldolase and aminotransferase
Assay type: biochemical
Details: enzyme added as the aminotransferase with ProA aldolase, in place of E. coli L-aspartate aminotransferase

Row | Molecule | monatin concentrations produced [mg/mL]
1 | S. meliloti tatA: Sinorhizobium meliloti tyrosine aminotransferase (tatA, SEQ ID NOS: 1 and 2) (protein, listed as Sinorhizobium meliloti) MFDALARQADDPLLFLIGLFRKDERPGKVDLGVGVYRDETGRTPIFRAVKAAEKRLLETQDSKAYIGPEGDLVFLDRLWELVGGDTIERSHVAGVQTPGGSGALRLAADLIARMGGRGIWLGLPSWPNHAPIFKAAGLDIATYDFFDIPSQSVIFDNLVSALEGAASGDAVLLHASCHNPTGGVLSEAQWMEIAALVAERGLLPLVDLAYQGFGRGLDQDVAGLRHLLGVVPEALVAVSCSKSFGLYRERAGAIFARTSSTASADRVRSNLAGLARTSYSMPPDHGAAVVRTILDDPELRRDWTEELETMRLRMTGLRRSLAEGLRTRWQSLGAVADQEGMFSMLPLSEAEVMRLRTEHGIYMPASGRINIAGLKTAEAAEIAGKFTSL | 0.1 to 0.5
2 | Porcine type II-A: Glutamic-oxaloacetic transaminase from pig heart (type IIa), Sigma G7005 (protein, UniProt P00503 2-413, looked up) Aspartate aminotransferase, …: APPSVFAEVPQAQPVLVFKLIADFREDPDPRKVNLGVGAYRTDDCQPWVLPVVRKVEQRIANDSSLNHEYLPILGLAEFRTCASRLALGDDSPALQEKRVGGVQSLGGTGALRIGAEFLARWYNGTNNKDTPVYVSSPTWENHNGVFTTAGFKDIRSYRYWDTEKRGLDLQGFLSDLENAPEFSIFVLHACAHNPTGTDPTPEQWKQIASVMKRRFLFPFFDSAYQGFASGNLEKDAWAIRYFVSEGFELFCAQSFSKNFGLYNERVGNLTVVAKEPDSILRVLSQMEKIVRVTWSNPPAQGARIVARTLSDPELFHEWTGNVKTMADRILSMRSELRARLEALKTPGTWNHITDQIGMFSFTGLNPKQVEYLINEKHIYLLPSGRINMCGLTTKNLDYVATSIHEAVTKIQ | 0.1 to 0.5

From US8206955B2, “Production of monatin and monatin precursors” (Cargill, Incorporated, priority 2003, dated 2012)
